The results in this text go back to paper PMC13042082.

Amino acid sequences for entries named in this document (tags omitted). A change or cut given only in a name is not applied to a line headed by its entry. Residues count along the entry.
UniProt Q15109, residues 23-404: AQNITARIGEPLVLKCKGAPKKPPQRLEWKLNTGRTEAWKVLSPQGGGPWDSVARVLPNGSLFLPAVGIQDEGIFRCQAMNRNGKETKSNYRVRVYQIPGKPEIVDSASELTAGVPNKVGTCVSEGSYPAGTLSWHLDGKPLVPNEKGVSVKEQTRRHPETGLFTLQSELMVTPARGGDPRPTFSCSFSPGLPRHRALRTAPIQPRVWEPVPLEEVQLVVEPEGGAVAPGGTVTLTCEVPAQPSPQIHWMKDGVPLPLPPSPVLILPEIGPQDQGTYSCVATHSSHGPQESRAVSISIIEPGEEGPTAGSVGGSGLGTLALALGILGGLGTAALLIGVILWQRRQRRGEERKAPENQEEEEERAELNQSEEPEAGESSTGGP
UniProt P08311: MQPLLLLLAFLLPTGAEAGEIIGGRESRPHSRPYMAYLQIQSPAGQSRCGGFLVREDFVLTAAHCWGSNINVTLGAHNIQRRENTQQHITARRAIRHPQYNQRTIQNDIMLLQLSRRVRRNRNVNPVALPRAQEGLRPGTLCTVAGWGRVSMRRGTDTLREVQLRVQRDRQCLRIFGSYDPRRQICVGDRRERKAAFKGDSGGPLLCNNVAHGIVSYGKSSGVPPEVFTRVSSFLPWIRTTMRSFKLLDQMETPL

This experiment addresses His tag fused RAGE (receptor for advanced glycation end products) (UniProt Q15109). The experiment is described as follows: pull-down; His-tagged RAGE overexpressed in 293T cells; lysate (50 mM NaH2PO4, 300 mM NaCl, 10 mM imidazole, pH 8.0) incubated with 2 ug CTSG at 4 C for 2 h; captured on Ni-NTA agarose beads, washed 3 times, Western blot with anti-His tag and anti-CTSG antibodies; the paper calls it co-immunoprecipitation; only the binder purified. (In general: A western blot detects proteins with antibodies after separation by electrophoresis.)

These are yes or no findings as the source states them, for the method shown. Binding seen in cells or lysates may run through a third protein. Binding can be weak; no strength is given.

As to “Cathepsin G (from UniProt P08311) (enzyme)”, the binding entry is “binds”.
